Assay results reported in article PMC11675670.
No constants are given. Whether binding was seen depends on the method and setting. Binding seen in cells or lysates may run through a third protein. These calls come from enrichment with a bait or labelling near it, and not all partners need be listed.

Sequences of proteins named here, by UniProt entry; tags and fusion partners are left off.
UniProt Q01094: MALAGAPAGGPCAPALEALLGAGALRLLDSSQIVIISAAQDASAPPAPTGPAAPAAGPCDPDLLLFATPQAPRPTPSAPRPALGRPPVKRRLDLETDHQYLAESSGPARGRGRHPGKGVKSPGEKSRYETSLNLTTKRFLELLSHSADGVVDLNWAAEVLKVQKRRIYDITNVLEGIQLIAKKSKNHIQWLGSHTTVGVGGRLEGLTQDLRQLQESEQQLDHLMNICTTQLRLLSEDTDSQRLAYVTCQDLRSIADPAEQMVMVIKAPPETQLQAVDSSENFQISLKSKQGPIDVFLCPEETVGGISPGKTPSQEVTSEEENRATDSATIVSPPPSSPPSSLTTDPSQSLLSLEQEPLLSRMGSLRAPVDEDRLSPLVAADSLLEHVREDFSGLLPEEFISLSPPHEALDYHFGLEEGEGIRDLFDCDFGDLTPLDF
UniProt Q92841: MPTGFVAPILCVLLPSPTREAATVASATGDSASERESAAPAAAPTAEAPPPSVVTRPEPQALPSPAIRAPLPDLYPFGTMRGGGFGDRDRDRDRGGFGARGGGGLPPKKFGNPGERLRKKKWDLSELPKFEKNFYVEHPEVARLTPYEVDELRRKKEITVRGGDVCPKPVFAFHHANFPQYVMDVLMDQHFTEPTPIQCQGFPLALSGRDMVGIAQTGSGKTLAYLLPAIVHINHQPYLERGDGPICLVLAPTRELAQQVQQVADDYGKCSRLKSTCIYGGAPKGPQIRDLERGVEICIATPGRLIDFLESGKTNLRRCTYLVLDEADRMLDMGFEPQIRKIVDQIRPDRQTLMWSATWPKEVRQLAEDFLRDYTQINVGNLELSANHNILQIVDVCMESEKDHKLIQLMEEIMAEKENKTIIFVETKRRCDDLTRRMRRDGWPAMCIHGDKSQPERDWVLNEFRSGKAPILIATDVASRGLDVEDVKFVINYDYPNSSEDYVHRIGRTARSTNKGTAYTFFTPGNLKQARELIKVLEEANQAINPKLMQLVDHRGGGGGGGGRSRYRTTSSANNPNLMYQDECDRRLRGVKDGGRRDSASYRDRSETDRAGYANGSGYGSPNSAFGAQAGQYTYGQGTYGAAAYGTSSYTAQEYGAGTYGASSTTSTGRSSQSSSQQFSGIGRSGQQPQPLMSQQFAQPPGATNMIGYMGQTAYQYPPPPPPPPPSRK
UniProt Q01844: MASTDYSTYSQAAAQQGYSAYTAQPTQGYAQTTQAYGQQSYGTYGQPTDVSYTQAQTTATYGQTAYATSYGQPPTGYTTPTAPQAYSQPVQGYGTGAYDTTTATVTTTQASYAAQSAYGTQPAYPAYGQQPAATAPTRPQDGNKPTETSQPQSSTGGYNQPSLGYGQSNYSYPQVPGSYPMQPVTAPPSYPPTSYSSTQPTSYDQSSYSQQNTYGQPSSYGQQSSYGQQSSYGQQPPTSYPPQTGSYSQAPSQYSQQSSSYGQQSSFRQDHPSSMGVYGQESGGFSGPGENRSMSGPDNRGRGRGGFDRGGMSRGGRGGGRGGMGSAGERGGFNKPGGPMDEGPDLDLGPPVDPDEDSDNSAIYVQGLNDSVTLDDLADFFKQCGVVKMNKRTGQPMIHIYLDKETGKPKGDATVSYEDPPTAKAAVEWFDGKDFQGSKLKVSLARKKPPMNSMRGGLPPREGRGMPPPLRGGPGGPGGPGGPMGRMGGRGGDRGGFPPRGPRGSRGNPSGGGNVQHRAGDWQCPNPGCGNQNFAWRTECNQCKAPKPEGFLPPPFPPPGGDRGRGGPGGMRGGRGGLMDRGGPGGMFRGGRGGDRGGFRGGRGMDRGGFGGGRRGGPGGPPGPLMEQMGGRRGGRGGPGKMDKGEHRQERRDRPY
UniProt Q15208: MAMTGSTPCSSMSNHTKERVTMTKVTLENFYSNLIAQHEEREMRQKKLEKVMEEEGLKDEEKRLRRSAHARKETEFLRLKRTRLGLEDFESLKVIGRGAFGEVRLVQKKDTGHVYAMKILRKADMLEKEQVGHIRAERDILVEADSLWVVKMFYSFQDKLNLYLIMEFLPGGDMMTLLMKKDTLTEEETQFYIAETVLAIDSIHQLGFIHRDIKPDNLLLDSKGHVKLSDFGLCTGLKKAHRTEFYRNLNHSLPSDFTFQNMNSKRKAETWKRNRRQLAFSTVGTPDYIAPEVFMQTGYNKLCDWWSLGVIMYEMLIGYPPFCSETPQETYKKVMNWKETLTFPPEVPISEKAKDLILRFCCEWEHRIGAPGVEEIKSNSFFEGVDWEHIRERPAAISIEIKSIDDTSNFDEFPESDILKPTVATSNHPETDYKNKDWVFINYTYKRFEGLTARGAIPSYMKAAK
UniProt Q14186: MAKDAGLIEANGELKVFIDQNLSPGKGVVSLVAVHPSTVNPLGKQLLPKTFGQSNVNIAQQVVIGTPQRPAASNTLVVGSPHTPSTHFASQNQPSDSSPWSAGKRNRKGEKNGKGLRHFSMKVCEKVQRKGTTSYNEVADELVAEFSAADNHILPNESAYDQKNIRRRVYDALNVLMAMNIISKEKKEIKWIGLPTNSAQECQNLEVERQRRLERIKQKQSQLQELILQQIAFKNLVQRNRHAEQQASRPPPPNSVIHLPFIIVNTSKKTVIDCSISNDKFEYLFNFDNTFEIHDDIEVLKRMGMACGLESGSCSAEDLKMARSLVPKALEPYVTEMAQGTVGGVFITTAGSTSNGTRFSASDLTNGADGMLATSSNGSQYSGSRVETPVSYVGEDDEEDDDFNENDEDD
UniProt P35637: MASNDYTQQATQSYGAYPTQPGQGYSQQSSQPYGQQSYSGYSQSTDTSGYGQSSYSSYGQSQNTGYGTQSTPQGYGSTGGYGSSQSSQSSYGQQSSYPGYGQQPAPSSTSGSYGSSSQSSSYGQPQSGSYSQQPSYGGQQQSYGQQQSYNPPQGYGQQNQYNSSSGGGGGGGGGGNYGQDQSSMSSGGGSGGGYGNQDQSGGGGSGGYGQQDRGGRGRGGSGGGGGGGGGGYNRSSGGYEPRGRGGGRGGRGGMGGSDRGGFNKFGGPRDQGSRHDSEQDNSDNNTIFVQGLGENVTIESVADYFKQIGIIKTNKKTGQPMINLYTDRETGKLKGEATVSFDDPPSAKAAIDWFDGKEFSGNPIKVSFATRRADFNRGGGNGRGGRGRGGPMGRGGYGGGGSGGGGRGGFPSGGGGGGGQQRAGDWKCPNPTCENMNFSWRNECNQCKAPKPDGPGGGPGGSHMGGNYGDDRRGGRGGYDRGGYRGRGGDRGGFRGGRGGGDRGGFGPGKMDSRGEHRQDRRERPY
UniProt P17844: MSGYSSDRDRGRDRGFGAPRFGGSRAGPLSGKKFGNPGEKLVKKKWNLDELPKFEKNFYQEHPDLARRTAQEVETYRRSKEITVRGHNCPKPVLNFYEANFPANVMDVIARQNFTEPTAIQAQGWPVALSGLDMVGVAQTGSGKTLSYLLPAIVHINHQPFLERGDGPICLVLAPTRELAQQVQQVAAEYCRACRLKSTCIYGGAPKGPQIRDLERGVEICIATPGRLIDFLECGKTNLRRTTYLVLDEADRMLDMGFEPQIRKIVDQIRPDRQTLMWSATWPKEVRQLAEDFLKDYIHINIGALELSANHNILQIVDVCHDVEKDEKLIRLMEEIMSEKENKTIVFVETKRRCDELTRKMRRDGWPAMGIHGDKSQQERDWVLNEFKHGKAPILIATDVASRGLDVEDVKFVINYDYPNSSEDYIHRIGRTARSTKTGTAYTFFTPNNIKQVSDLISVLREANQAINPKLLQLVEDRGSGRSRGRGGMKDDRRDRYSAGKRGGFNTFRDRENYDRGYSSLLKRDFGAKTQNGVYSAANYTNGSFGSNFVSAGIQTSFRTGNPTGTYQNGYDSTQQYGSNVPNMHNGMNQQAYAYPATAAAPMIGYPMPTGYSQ

B1: transcription factor Dp-2 (protein, UniProt Q14188 1-446)
chain: MTAKNVGLTSTNAEVRGFIDQNLSPTKGNISFVAFPVSNTNSPTKILPKTLGPINVNVGPQMIISTPQRLTSSGSVLIGSPYTPAPAMVTQTHIAEATGWVPGDRKRARKFIDSDFSESKRSKKGDKNGKGLRHFSMKVCEKVQRKGTTSYNEVADELVSEFTNSNNHLAADSAYDQKNIRRRVYDALNVLMAMNIISKEKKEIKWIGLPTNSAQECQNLEIEKQRRIERIKQKRAQLQELLLQQIAFKNLVQRNRQNEQQNQGPPALNSTIQLPFIIINTSRKTVIDCSISSDKFEYLFNFDNTFEIHDDIEVLKRMGMSFGLESGKCSLEDLKLAKSLVPKALEGYITDISTGPSWLNQGLLLNSTQSVSNLDLTTGATLPQSSVNQGLCLDAEVALATGQFLAPNSHQSSSAASHCSESRGETPCSFNDEDEEDDEEDSSSPE

These molecules were tested against 3xFLAG-tagged E2F1 (UniProt Q01094) (assay: affinity purification with mass spectrometry; 3xFLAG-E2F1 induced or not with Doxycyclin (1 ug/mL) in T-REx-HeLa-3xFLAG-E2F1 cells; nuclear extracts (Dignam method) immunoprecipitated with anti-FLAG M2 affinity beads, eluted with SDS sample buffer, SDS-PAGE, whole lanes cut in three pieces …; proteins enriched in the induced sample).

binding | Molecule
binds | DEAD-box helicase 17 (from UniProt Q92841 1-729)
binds | EWS RNA binding protein 1 (from UniProt Q01844 1-656)
binds | serine/threonine kinase 38 (from UniProt Q15208 1-465)
binds | transcription factor Dp-1 (from UniProt Q14186 1-410)
binds | FUS RNA binding protein (from UniProt P35637 1-526)
binds | DEAD/H box 5 (DDX5) (from UniProt P17844 1-614)
binds | B1
